Assay results reported in publication doi:10.1101/2024.09.05.611419.

Protein sequences, listed by entry. Tags and fused reporters are not part of them.
UniProt P42945: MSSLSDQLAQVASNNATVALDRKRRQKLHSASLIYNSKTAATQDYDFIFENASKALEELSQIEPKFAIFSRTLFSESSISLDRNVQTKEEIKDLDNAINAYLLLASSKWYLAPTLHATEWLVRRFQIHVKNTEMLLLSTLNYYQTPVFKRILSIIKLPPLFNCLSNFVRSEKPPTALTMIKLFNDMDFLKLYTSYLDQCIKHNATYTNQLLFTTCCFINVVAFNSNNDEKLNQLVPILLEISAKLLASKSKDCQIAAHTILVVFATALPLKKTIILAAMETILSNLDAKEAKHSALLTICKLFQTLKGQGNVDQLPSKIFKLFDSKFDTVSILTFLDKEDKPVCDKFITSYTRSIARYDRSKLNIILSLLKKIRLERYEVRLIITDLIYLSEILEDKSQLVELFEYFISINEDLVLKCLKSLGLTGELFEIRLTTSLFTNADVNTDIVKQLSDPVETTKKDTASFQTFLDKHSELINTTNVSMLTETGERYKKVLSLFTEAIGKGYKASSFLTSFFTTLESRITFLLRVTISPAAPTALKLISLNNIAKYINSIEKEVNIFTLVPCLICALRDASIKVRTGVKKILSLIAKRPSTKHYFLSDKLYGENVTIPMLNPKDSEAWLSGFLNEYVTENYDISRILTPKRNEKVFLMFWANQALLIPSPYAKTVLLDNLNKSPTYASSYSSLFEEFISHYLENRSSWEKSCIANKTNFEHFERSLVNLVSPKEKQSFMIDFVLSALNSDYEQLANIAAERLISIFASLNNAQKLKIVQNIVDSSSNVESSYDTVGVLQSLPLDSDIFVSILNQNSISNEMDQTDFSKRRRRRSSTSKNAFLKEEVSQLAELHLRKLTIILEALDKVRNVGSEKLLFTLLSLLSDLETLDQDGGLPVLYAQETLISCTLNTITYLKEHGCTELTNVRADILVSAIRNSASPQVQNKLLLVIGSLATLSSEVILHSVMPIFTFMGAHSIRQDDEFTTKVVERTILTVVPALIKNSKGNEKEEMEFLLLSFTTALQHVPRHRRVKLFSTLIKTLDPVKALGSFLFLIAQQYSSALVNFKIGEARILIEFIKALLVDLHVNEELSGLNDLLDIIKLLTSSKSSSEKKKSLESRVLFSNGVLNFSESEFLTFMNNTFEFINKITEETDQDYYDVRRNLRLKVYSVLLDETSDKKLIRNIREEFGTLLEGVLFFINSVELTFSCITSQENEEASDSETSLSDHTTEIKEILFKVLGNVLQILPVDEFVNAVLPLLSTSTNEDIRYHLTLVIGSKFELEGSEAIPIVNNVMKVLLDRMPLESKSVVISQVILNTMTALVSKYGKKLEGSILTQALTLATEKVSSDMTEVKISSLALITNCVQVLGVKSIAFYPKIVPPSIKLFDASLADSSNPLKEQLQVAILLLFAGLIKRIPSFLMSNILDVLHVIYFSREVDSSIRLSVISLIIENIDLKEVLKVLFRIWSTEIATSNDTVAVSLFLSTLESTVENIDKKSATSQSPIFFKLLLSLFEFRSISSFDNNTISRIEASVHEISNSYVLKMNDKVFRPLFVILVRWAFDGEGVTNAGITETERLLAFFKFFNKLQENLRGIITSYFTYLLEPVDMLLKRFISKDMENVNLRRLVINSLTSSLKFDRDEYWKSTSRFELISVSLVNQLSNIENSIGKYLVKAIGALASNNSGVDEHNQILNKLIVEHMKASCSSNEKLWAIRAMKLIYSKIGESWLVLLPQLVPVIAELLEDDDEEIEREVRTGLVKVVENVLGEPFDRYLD
UniProt P25586: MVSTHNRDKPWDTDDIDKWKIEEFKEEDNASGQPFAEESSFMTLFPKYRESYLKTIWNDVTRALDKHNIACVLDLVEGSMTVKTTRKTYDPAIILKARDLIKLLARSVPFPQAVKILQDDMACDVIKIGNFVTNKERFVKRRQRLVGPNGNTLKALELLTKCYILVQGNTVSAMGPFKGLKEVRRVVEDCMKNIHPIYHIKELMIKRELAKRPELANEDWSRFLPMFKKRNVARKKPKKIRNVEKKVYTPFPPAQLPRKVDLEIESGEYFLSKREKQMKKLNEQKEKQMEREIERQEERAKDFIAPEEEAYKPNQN
UniProt Q05022: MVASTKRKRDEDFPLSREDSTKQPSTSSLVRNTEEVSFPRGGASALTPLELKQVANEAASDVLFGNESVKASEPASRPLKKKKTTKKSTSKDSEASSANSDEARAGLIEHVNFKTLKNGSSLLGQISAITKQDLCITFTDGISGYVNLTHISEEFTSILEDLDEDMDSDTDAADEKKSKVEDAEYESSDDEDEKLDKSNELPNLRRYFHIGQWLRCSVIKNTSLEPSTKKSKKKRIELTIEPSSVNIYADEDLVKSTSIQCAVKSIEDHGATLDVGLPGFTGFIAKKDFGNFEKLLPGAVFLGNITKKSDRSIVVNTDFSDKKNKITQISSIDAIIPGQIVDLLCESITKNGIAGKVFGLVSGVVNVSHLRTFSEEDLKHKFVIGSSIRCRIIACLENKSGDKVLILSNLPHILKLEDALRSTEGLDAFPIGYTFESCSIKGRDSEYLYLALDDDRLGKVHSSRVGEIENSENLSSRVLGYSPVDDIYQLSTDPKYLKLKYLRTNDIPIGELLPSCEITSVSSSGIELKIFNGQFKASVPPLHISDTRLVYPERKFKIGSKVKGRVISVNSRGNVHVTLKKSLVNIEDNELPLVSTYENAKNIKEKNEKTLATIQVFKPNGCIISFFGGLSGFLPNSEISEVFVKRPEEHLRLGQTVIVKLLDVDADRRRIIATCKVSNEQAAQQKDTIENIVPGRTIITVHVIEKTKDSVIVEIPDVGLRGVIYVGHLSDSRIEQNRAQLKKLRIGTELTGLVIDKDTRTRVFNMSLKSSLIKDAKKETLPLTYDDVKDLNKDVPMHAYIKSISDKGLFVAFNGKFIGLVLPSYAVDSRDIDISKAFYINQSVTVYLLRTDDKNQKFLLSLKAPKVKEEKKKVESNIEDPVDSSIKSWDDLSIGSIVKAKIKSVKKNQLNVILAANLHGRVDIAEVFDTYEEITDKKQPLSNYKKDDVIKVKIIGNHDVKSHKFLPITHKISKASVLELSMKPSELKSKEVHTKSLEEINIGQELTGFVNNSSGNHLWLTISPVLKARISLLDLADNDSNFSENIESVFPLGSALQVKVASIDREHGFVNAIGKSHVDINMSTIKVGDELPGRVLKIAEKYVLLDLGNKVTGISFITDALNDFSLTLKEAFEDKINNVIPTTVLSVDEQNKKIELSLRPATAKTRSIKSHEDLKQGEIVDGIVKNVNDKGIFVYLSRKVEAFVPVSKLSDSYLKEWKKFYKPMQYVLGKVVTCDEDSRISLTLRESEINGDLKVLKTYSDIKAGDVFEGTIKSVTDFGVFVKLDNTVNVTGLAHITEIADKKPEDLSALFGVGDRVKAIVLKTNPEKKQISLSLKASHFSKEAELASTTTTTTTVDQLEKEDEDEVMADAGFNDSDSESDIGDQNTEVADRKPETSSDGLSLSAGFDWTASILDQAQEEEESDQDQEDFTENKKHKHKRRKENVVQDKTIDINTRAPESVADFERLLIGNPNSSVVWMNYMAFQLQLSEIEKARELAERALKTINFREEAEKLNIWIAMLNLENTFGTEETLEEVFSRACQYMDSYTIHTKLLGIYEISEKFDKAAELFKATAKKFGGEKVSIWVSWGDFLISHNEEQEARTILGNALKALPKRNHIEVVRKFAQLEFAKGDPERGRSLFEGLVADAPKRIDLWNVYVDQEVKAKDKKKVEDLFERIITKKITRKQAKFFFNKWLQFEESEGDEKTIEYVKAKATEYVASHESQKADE
UniProt P33322: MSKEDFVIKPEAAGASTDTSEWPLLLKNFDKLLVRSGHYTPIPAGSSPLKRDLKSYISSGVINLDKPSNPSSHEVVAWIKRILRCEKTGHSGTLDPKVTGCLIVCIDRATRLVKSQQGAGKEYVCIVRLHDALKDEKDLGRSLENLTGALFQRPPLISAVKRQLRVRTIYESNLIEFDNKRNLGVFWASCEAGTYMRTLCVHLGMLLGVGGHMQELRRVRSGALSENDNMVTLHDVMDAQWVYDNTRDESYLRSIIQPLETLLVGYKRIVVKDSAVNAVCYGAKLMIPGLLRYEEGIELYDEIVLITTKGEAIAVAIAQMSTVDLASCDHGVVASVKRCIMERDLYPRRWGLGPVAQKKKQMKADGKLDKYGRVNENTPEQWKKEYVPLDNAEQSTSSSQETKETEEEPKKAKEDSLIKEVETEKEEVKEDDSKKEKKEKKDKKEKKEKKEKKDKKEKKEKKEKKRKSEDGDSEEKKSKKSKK
UniProt P28007: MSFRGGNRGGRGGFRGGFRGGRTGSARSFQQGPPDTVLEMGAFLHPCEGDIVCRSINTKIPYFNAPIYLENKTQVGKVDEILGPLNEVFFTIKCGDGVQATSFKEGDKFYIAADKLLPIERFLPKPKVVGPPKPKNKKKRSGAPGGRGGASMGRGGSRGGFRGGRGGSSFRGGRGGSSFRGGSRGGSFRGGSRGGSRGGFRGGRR
UniProt Q6Q547: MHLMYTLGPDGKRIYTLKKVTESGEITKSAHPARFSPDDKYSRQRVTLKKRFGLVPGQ
UniProt P32495: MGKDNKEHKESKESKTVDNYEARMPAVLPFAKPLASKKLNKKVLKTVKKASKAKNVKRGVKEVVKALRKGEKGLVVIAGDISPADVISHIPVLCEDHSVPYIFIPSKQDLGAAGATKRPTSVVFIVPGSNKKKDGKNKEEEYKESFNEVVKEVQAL

T1: Kri1-FTpA (S. cerevisiae) (UniProt P42846)
T1 sequence: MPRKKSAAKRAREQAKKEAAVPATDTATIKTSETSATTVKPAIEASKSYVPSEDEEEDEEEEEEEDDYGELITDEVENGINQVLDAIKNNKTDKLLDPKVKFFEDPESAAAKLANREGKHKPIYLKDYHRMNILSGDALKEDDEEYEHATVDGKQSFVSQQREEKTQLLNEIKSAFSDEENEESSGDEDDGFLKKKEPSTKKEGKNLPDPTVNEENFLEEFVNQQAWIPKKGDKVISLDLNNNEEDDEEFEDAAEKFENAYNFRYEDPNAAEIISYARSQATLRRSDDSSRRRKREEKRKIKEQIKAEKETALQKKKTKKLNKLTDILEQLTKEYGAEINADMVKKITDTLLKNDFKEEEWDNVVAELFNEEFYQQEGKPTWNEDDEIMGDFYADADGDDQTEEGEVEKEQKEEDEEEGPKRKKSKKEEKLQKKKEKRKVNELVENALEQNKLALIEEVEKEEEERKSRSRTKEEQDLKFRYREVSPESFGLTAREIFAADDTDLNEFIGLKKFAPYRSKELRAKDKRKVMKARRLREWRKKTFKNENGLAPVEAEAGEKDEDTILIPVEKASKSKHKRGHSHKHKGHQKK

T2: Noc4-FTpA (S. cerevisiae) (UniProt Q06512)
T2 sequence: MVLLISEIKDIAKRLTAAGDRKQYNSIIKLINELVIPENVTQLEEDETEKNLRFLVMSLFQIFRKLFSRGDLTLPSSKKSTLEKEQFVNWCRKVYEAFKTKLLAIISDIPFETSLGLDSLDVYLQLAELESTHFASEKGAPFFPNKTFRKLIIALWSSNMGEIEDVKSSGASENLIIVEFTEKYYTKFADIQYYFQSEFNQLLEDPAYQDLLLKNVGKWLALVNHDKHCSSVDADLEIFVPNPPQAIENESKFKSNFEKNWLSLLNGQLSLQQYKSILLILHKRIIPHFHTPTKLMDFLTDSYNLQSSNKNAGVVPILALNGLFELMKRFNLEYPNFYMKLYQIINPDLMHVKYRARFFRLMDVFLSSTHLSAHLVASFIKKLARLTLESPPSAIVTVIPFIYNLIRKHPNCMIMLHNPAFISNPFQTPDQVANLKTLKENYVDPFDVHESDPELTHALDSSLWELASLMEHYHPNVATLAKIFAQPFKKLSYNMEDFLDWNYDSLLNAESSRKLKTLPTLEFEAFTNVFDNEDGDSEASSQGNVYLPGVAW

T3: Utp23-FTpA (S. cerevisiae) (UniProt Q12339)
T3 sequence: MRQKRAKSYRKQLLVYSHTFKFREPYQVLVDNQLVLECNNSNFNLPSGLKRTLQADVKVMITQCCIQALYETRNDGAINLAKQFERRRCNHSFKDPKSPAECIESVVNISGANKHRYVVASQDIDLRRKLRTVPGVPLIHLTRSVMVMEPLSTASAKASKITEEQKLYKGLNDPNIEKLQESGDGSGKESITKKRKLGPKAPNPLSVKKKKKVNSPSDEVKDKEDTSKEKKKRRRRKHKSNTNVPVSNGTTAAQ

T4: protA-TEV-tagged Utp23 (S. cerevisiae) (UniProt Q12339)
T4 sequence: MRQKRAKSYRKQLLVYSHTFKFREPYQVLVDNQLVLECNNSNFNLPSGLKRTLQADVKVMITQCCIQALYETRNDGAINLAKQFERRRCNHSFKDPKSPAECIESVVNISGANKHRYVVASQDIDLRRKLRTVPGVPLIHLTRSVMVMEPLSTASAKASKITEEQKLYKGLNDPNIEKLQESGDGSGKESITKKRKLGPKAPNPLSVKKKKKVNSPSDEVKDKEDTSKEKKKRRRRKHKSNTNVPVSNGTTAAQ


Key:
Assay in all cases: affinity purification with mass spectrometry
[1] = target: T1, Kri1-FTpA (S. cerevisiae)
[2] = target: T2, Noc4-FTpA (S. cerevisiae)
[3] = target: Utp10-FTpA (S. cerevisiae) (UniProt P42945)
[4] = target: T3, Utp23-FTpA (S. cerevisiae)
[5] = target: Krr1 (wild type), second bait of the split-tag purification Utp23-Krr1 (S. cerevisiae) (UniProt P25586)
[6] = target: T4, protA-TEV-tagged Utp23 (S. cerevisiae)

Molecule	binding [1]	binding [2]	binding [3]	binding [4]	binding [5]	binding [6]
Rrp5 (from UniProt Q05022 1-1729)	binds	binds	binds	–	–	–
Cbf5 (from UniProt P33322 1-483) (enzyme)	–	binds	binds	–	–	–
Gar1 (from UniProt P28007 1-205)	–	binds	binds	–	–	–
Nop10 (from UniProt Q6Q547 1-58)	–	binds	binds	–	–	–
Nhp2 (from UniProt P32495 1-156)	–	binds	binds	–	–	–
Utp22 (protein, UniProt P53254 1-1237) MATSVKRKASETSDQNIVKVQKKHSTQDSTTDNGSKENDHSSQAINERTVPEQENDESDTSPESNEVATNTAATRHNGKVTATESYDIHIARETAELFKSNIFKLQIDELLEQVKLKQKHVLKVEKFLHKLYDILQEIPDWEEKSLAEVDSFFKNKIVSVPFVDPKPIPQNTNYKFNYKKPDISLIGSFALKAGIYQPNGSSIDTLLTMPKELFEKKDFLNFRCLHKRSVYLAYLTHHLLILLKKDKLDSFLQLEYSYFDNDPLLPILRISCSKPTGDSLSDYNFYKTRFSINLLIGFPYKVFEPKKLLPNRNCIRIAQESKEQSLPATPLYNFSVLSSSTHENYLKYLYKTKKQTESFVEATVLGRLWLQQRGFSSNMSHSGSLGGFGTFEFTILMAALLNGGGINSNKILLHGFSSYQLFKGVIKYLATMDLCHDGHLQFHSNPENSSSSPASKYIDEGFQTPTLFDKSTKVNILTKMTVSSYQILKEYAGETLRMLNNVVQDQFSNIFLTNISRFDNLKYDLCYDVQLPLGKYNNLETSLAATFGSMERVKFITLENFLAHKITNVARYALGDRIKYIQIEMVGQKSDFPITKRKVYSNTGGNHFNFDFVRVKLIVNPSECDKLVTKGPAHSETMSTEAAVFKNFWGIKSSLRRFKDGSITHCCVWSTSSSEPIISSIVNFALQKHVSKKAQISNETIKKFHNFLPLPNLPSSAKTSVLNLSSFFNLKKSFDDLYKIIFQMKLPLSVKSILPVGSAFRYTSLCQPVPFAYSDPDFFQDVILEFETSPKWPDEITSLEKAKTAFLLKIQEELSANSSTYRSFFSRDESIPYNLEIVTLNILTPEGYGFKFRVLTERDEILYLRAIANARNELKPELEATFLKFTAKYLASVRHTRTLENISHSYQFYSPVVRLFKRWLDTHLLLGHITDELAELIAIKPFVDPAPYFIPGSLENGFLKVLKFISQWNWKDDPLILDLVKPEDDIRDTFETSIGAGSELDSKTMKKLSERLTLAQYKGIQMNFTNLRNSDPNGTHLQFFVASKNDPSGILYSSGIPLPIATRLTALAKVAVNLLQTHGLNQQTINLLFTPGLKDYDFVVDLRTPIGLKSSCGILSATEFKNITNDQAPSNFPENLNDLSEKMDPTYQLVKYLNLKYKNSLILSSRKYIGVNGGEKGDKNVITGLIKPLFKGAHKFRVNLDCNVKPVDDENVILNKEAIFHEIAAFGNDMVINFETD	binds	binds	binds	binds	–	–
Rrp7 (protein, UniProt P25368 1-297) MGIEDISAMKNGFIVVPFKLPDHKALPKSQEASLHFMFAKRHQSSNSNESDCLFLVNLPLLSNIEHMKKFVGQLCGKYDTVSHVEELLYNDEFGLHEVDLSALTSDLMSSTDVNEKRYTPRNTALLKFVDAASINNCWNALKKYSNLHAKHPNELFEWTYTTPSFTTFVNFYKPLDIDYLKEDIHTHMAIFEQREAQAQEDVQSSIVDEDGFTLVVGKNTKSLNSIRKKILNKNPLSKHENKAKPISNIDKKAKKDFYRFQVRERKKQEINQLLSKFKEDQERIKVMKAKRKFNPYT	binds	binds	binds	binds	–	–
RNA helicase Rok1 (enzyme, UniProt P45818 1-564) MDIFRVLTRGASVKKESGPKAKAADYSVINGNDENHKEDNNESQIVKELDFFRNKRIISKVEDDREKTTENDSPNKEEKSGNDDGLIKPVITNTVEASALRKSYKGNVSGIDIPLPIGSFEDLISRFSFDKRLLNNLIENGFTEPTPIQCECIPVALNNRDVLACGPTGSGKTLAFLIPLVQQIIDDKQTAGLKGLIISPTKELANQIFIECFKLSYKIFLEKKRPLQVALLSKSLGAKLKNKVVSDKKYDIIISTPLRLIDVVKNEALDLSKVKHLIFDEADKLFDKTFVEQSDDILSACREPSLRKAMFSATIPSNVEEIAQSIMMDPVRVIIGHKEAANTNIEQKLIFCGNEEGKLIAIRQLVQEGEFKPPIIIFLESITRAKALYHELMYDRINVDVIHAERTALQRDRIIERFKTGELWCLICTDVLARGIDFKGVNLVINYDVPGSSQAYVHRIGRTGRGGRSGKAITFYTKQDSVAIKPIINVMKQSGCEVSEWMDKMAKMTRKEKESIKNGKAHKERKQITTVPKMDKAKRRRQQEMIAASKRRKNEELSKKHFSK	binds	binds	binds	binds	–	–
Utp23 (untagged, found in Noc4 and Utp10 particles) (protein, UniProt Q12339 1-254) MRQKRAKSYRKQLLVYSHTFKFREPYQVLVDNQLVLECNNSNFNLPSGLKRTLQADVKVMITQCCIQALYETRNDGAINLAKQFERRRCNHSFKDPKSPAECIESVVNISGANKHRYVVASQDIDLRRKLRTVPGVPLIHLTRSVMVMEPLSTASAKASKITEEQKLYKGLNDPNIEKLQESGDGSGKESITKKRKLGPKAPNPLSVKKKKKVNSPSDEVKDKEDTSKEKKKRRRRKHKSNTNVPVSNGTTAAQ	–	binds	binds	–	–	–
Kri1 (protein, UniProt P42846 1-591) MPRKKSAAKRAREQAKKEAAVPATDTATIKTSETSATTVKPAIEASKSYVPSEDEEEDEEEEEEEDDYGELITDEVENGINQVLDAIKNNKTDKLLDPKVKFFEDPESAAAKLANREGKHKPIYLKDYHRMNILSGDALKEDDEEYEHATVDGKQSFVSQQREEKTQLLNEIKSAFSDEENEESSGDEDDGFLKKKEPSTKKEGKNLPDPTVNEENFLEEFVNQQAWIPKKGDKVISLDLNNNEEDDEEFEDAAEKFENAYNFRYEDPNAAEIISYARSQATLRRSDDSSRRRKREEKRKIKEQIKAEKETALQKKKTKKLNKLTDILEQLTKEYGAEINADMVKKITDTLLKNDFKEEEWDNVVAELFNEEFYQQEGKPTWNEDDEIMGDFYADADGDDQTEEGEVEKEQKEEDEEEGPKRKKSKKEEKLQKKKEKRKVNELVENALEQNKLALIEEVEKEEEERKSRSRTKEEQDLKFRYREVSPESFGLTAREIFAADDTDLNEFIGLKKFAPYRSKELRAKDKRKVMKARRLREWRKKTFKNENGLAPVEAEAGEKDEDTILIPVEKASKSKHKRGHSHKHKGHQKK	–	binds	binds	–	–	–
Mrd1 (protein, UniProt Q06106 1-887) MSRIIVKGLPVYLTDDNLREHFTKRLRQKHSHQAVNGSGPDLITDVKILRDRNGESRRFGFIGYRNEEDAFDAVEYFNGSFINTSKIEVSMAKSFADPRVPQPMKEKRREALKRFREKEEKLLQEENRKKKKVDENKHSNIDDEIRKNKQLQEFMETMKPSSQVTSWEKVGIDKSIEDEKLKREEEDSSVQGNSLLAHALALKEENNKDEAPNLVIENESDDEYSALNRNRDEDQEDAGEEEKMISISNLKDTDIGLVNDDANSDEKENEKRRNLAQDEKVSDLDWFKQRRVRIKESEAETREKSSSYATEQNESLDTKKEEQPERAVPQKTDEELAIEKINQTGRLFLRNILYTSKEEDFRKLFSPFGELEEVHVALDTRTGQSKGFAYVLFKDSKNAVNAYVELDKQIFQGRLLHILPGEEKKSHRLDEFDLKNMPLKKQKELKRKAAASRQTFSWNSLYMNQDAVLGSVAAKLGLEKSQLIDAENSSSAVKQALAEAHVIGDVRKYFESKGVDLTKFSQLKSTNQRDDKVILVKNFPFGTTREELGEMFLPYGKLERLLMPPAGTIAIVQFRDTTSARAAFTKLSYKRFKDGIIYLERGPKDCFTKPAEADDLINNTSAKEEENPVEVKPSSNDLMEANKDVTEGSSNAHDEDVIDGPTVSIFIKNLNFSTTNQNLTDRFKVFTGFVVAQVKTKPDPKHQGKTLSMGFGFVEFRTKEQANAVIAAMDGTVIDGHKIQLKLSHRQASQSGNTKTKSNKKSGKIIVKNLPFEATRKDVFELFNSFGQLKSVRVPKKFDKSARGFAFVEFLLPKEAENAMDQLHGVHLLGRRLVMQYAEEDAVDAEEEIARMTKKVRKQVATNEMAALRNGGGRKKLDVDDEENEGF	–	–	–	–	binds	binds

These are yes or no findings as the source states them, for the method shown. Binding seen in cells or lysates may run through a third protein. A yes stands for co-enrichment or nearness to the bait. Other partners may have been found. For some assays here: Where a sequence is shown, tags or fusion partners need not be part of it.
